Results as given in PubChem BioAssay AID588499 (NMMLSC, 2011).
In all, about 360,000 compounds went through this assay and about 610 (0.17%) were called active. Inconclusive means that the source gave no clear call. Such entries were picked first, then a sample of the others. No stated cut-off is given here; in the data, active means inhibition above about 30%; inconclusive means no clear call, values can overlap the other calls; inactive means below that.

These molecules were tested on Botulinum neurotoxin type A light chain protease (Clostridium botulinum A str. ATCC 3502) (assay: blockers of BoNT/A LC substrate cleavage – biochemical, flow cytometry, MLPCN library, primary screen (AID 588499; further: plate controls were buffer without enzyme for full effect and enzyme alone for no effect)). Conditions: multiplex microsphere protease substrate cleavage, at 10 µM, hits give high values.

SMILES | inhibition
Cc1nc(SCc2cccc(F)c2)[nH]c(=O)c1C#N | inconclusive: 6.3%
CCc1ccccc1NC(=O)CNC(=O)c1cc(C2CC2)nc2c1cnn2C(C)C | inconclusive: 3%
COCCCNC(=S)NNC(=S)Nc1ccc(F)cc1F | inconclusive: -1.3%
C/C(=C\C(=O)Nc1nccs1)c1ccccc1 | inconclusive: -3.7%
O=C(C/C=N/OCc1c(Cl)cccc1Cl)c1ccc(Cl)cc1 | inconclusive: -4.3%
CC(=O)N1c2ccc(S(=O)(=O)N3CCCC3)cc2CC1C(=O)Nc1cc(C)cc(C)c1 (stereo not drawn) | inconclusive: -1%
Cc1ccc(N(CC(O)COCc2ccco2)S(=O)(=O)c2ccc(C)cc2)cc1 (stereo not drawn) | inactive: -1.6%
CCn1c(Cn2nnc(-c3ccccc3)n2)nnc1SCC(=O)N1CCOCC1 | inconclusive: -0.3%
COc1ccc(-c2cc(C(=O)N3CCN(c4ncccn4)CC3)c3ccccc3n2)cc1 | inactive: -0.8%
CCOC(=O)C1=C(C)NC(=O)C(C(N)=O)C12CCCC2 (stereo not drawn) | inconclusive: -2.6%
CN(C)C(Cc1ccccc1)C(=O)c1ccc(-c2ccccc2)cc1 (stereo not drawn) | inconclusive: -0.8%
O=C(COC(=O)C12CC3CC(CC(C3)C1)C2)NC12CC3CC(CC(C3)C1)C2 | inconclusive: -10.5%
Cc1ccc(F)c(S(=O)(=O)NC(=O)C2(C)CCN2C(=O)Cc2ccccc2Cl)c1 (stereo not drawn) | inactive: -0.2%
NNC(=O)CS(=O)(=O)c1ccc(Cl)cc1 | inconclusive: -56.2%
O=C(CN1CCN(Cc2ccccc2)CC1)N1CCN(c2ccccc2)CC1 | inconclusive: 4.1%
OC[C@@H]1CN(Cc2ccc(Cl)cc2)C[C@H](n2cnc3c(NC4CC4)ncnc32)O1 | inactive: 0%
COC(=O)[C@]1(C)N[C@H](CN(C)S(=O)(=O)c2ccc(C)cc2)[C@@H]2C(=O)N(Cc3ccccc3)C(=O)[C@@H]21 | inactive: 0.6%
Cc1c(C(=O)N2CCN(C3CCS(=O)(=O)C3)CC2)oc2ccc(Cl)cc12 (stereo not drawn) | inconclusive: 8.1%
Cc1sc2nc(CN3CCCC3)nc(N3CCN(S(=O)(=O)c4cccs4)CC3)c2c1C | inconclusive: -2.5%
O=C(O)COc1c(F)c(F)c(C(F)(F)F)c(F)c1F | inconclusive: -0.9%

Of the compounds above, these have fluorine.
SMILES | inhibition
Cc1nc(SCc2cccc(F)c2)[nH]c(=O)c1C#N | inconclusive: 6.3%
COCCCNC(=S)NNC(=S)Nc1ccc(F)cc1F | inconclusive: -1.3%
Cc1ccc(F)c(S(=O)(=O)NC(=O)C2(C)CCN2C(=O)Cc2ccccc2Cl)c1 (stereo not drawn) | inactive: -0.2%
O=C(O)COc1c(F)c(F)c(C(F)(F)F)c(F)c1F | inconclusive: -0.9%

Continued.

SMILES | inhibition
Cc1ccc(C)c(NC(=O)CN(C)C(=O)c2ccc(-c3cccc(C(F)(F)F)c3)o2)c1 | inconclusive: 2.8%
Cc1cc(N2CCCC(C(=O)Nc3ccc4c(c3)CCC4)C2)n2ncnc2n1 (stereo not drawn) | inconclusive: 4.4%
COc1ccc(CNc2nc3nc(C)cc(C)n3n2)cc1 | inactive: -2.7%
O=C1C2C3C=CC(C3)C2C(=O)N1c1ccc2ccccc2n1 (stereo not drawn) | inactive: -0.9%
Cc1cc(C(=O)CCC(=O)NNC(=O)c2ccccc2O)c(C)s1 | inconclusive: 32.4%
CCOc1ccc(C(C)(N)C(=O)O)cc1 (stereo not drawn) | inconclusive: 0.5%
CCn1c(COc2ccccc2C)nnc1SCC(=O)Nc1ccc2c(c1)OCCO2 | inconclusive: -0.6%
NC(=O)CSc1nnc(COc2cccc3ccccc23)o1 | inconclusive: 6%
Cn1c(SCc2ccc(Cl)cc2)nnc1-c1ccc2nonc2c1 | inconclusive: 7.6%
O=C1N/C(=N\c2ccccn2)SC1Cc1ccccc1Cl (stereo not drawn) | inconclusive: -53.4%
COC(=O)c1ccccc1NC(=O)CN1CCC(C(=O)c2ccc3c(c2)OCCO3)CC1 | inconclusive: 0.8%
CCOc1ccc(CC(=O)NCc2ccc3c(c2)cc(C)n3C)cc1 | active: 81.2%
O=C(Nc1nc2ccccc2s1)C1CCCN1S(=O)(=O)c1ccc(Cl)cc1 (stereo not drawn) | inconclusive: -1%
CSc1sc(C(=O)NCC2CC2)cc1S(=O)(=O)C(C)C | inconclusive: 8.3%
O=S(=O)(c1ccc(F)cc1)N1CCc2ccccc21 | inconclusive: -6.9%
O=C1CCCC2=C1C1(CCCC1)N=C(Nc1nc3cc(-c4ccccc4)ccc3o1)N2 | inactive: 0.6%
Cc1cc(C)n2nc3nc4c(cc3c2n1)CCCC4 | inconclusive: 6.4%
COc1cc(/C=C/C(=O)NNC(=O)c2cccc(S(=O)(=O)N(C)C)c2)cc(OC)c1OC | inconclusive: -1%
COC(=O)c1ccc(C)c(NC(=O)CCSc2ccc(C)cc2)c1 | inactive: 0.6%
CCNC(=O)C1(C)CCCN1C(=O)c1cc(OC)c(OC)c(OC)c1 (stereo not drawn) | inactive: -0.1%

SMILES | inhibition
CCOC(=O)c1ccc(S(=O)(=O)N2CCN(CC(=O)NC(=O)NC(C)(C)C)CC2)cc1 | inconclusive: -0.8%
O=C1/C(=C\c2cccs2)SC(=S)N1C1CCS(=O)(=O)C1 (stereo not drawn) | inactive: 4.1%
COC(=O)CSc1nnc(CNC(=O)c2cccc(C)c2)n1-c1ccccc1OC | inconclusive: 3.6%
CCOC(=O)/C(=C\c1ccccc1)NC(=O)c1ccccc1 | inconclusive: -22.7%
COCCNC(=O)CN1CCC(NC(=O)Nc2ccccc2)CC1 | inconclusive: 2.6%
CCOC(=O)C1CCCN(C2CC(=O)N(c3cccc(C(F)(F)F)c3)C2=O)C1 (stereo not drawn) | inconclusive: -2.7%
COc1ccccc1N(CC(=O)N1CCCCCC1)S(=O)(=O)c1ccc(C)cc1 | inactive: 1.2%
CNc1nc(-c2ccccc2)nnc1C(F)(F)F | inconclusive: 0.7%
COc1ccc2[nH]cc(S(=O)(=O)c3ccc(C(C)C)cc3)c(=O)c2c1 | inactive: 0.1%
CC(C)c1nc2sc3ccccc3c(=O)c2c(=O)n1Cc1ccccc1 | inconclusive: -27.3%
c1ccc(CCC2=NCCn3cccc32)cc1 | inconclusive: -0.8%
O=Cc1ccc(Oc2nc(Cl)ncc2F)cc1 | inconclusive: -5.3%
CNCCCOc1ccc(C)cc1Br | inconclusive: -1%
COCc1cc(=O)[nH]c(SC)n1 | inconclusive: 30.2%
O=C(/C=C/c1ccccc1)Nc1cccc(C(=O)N2CCCC2)c1 | inactive: -0.7%
COc1ccc2[nH]c(=O)c(CN(C)C(=O)C3CCCCC3)cc2c1 | inactive: -0.1%
COCCn1c(C)cc(C(=O)COC(=O)CCc2ccc(S(=O)(=O)N3CCOCC3)cc2)c1C | inconclusive: 0.4%
COc1ccccc1C(=O)NCCOc1ccc(C(C)(C)C)cc1 | inconclusive: -2.9%
